According to the supplement of paper PMC4604168 (melanoma cell lines):
The list shows a part of the results. Single values are uncertain, as repeats are few or missing.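 The apoptosis fraction was the count of cleaved-PARP antibody-stained nuclei relative to all DNA-stained nuclei, imaged in 1,536-well plates. Screening doses were set so most cells survived, and baseline and induced cleaved-PARP levels vary greatly across cell lines.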

test system: RPMI7951; test: cleaved PARP positive nuclei fraction relative to DMSO control; melanoma cells; higher = more apoptosis; conditions: library dose: low library concentration; 72 h

Structure (SMILES)	cleaved PARP positive nuclei fraction
CC(=O)c1c(C)c2cnc(Nc3ccc(N4CCNCC4)cn3)nc2n(C2CCCC2)c1=O [palbociclib] + C[C@]1(c2nc3c(C(N)=O)cccc3[nH]2)CCCN1 [Veliparib] (first compound 0.04 µM, partner dose 1.4 µM)	47%
C=CCNC1=C2C[C@@H](C)C[C@H](OC)[C@H](O)[C@@H](C)/C=C(\C)[C@H](OC(N)=O)[C@@H](OC)/C=C\C=C(/C)C(=O)NC(=CC1=O)C2=O [Tanespimycin] + C#Cc1cccc(Nc2ncnc3cc(OCCOC)c(OCCOC)cc23)c1 [erlotinib] (first compound 0.002 µM, partner dose 0.8 µM)	190%
C=CCNC1=C2C[C@@H](C)C[C@H](OC)[C@H](O)[C@@H](C)/C=C(\C)[C@H](OC(N)=O)[C@@H](OC)/C=C\C=C(/C)C(=O)NC(=CC1=O)C2=O [Tanespimycin] + Clc1ccc(Nc2nnc(Cc3ccncc3)c3ccccc23)cc1 [vatalanib] (first compound 0.002 µM, partner dose 2 µM)	132%
COCC[n+]1c2c(n(Cc3cnccn3)c1C)C(=O)c1ccccc1C2=O + Nc1cccc2c1CN(C1CCC(=O)NC1=O)C2=O [lenalidomide] (first compound 0.0004 µM, partner dose 1 µM)	70.6%
C#Cc1cccc(Nc2ncnc3cc(OCCOC)c(OCCOC)cc23)c1 [erlotinib] + C[C@]1(c2nc3c(C(N)=O)cccc3[nH]2)CCCN1 [Veliparib] (first compound 0.8 µM, partner dose 1.4 µM)	371%
CC(=O)c1c(C)c2cnc(Nc3ccc(N4CCNCC4)cn3)nc2n(C2CCCC2)c1=O [palbociclib] + C#Cc1cccc(Nc2ncnc3cc(OCCOC)c(OCCOC)cc23)c1 [erlotinib] (first compound 0.04 µM, partner dose 0.8 µM)	122%
Nc1cccc2c1CN(C1CCC(=O)NC1=O)C2=O (stereo unspecified) [lenalidomide] + COc1cc(Nc2ncc(F)c(Nc3ccc4c(n3)NC(=O)C(C)(C)O4)n2)cc(OC)c1OC [Tamatinib] (first compound 1 µM, partner dose 0.4 µM)	39.5%
C[C@]1(c2nc3c(C(N)=O)cccc3[nH]2)CCCN1 [Veliparib] + CC(C)(C)c1cnc(CSc2cnc(NC(=O)C3CCNCC3)s2)o1 [SNS-032] (first compound 1.4 µM, partner dose 0.01 µM)	86.6%
Cc1nc(Nc2ncc(C(=O)Nc3c(C)cccc3Cl)s2)cc(N2CCN(CCO)CC2)n1 [dasatanib] + Nc1cccc2c1CN(C1CCC(=O)NC1=O)C2=O [lenalidomide] (first compound 0.004 µM, partner dose 1 µM)	138%
CC(=O)c1c(C)c2cnc(Nc3ccc(N4CCNCC4)cn3)nc2n(C2CCCC2)c1=O [palbociclib] + OCc1c[nH]c2ccccc12 [Indole-3-carbinol] (first compound 0.04 µM, partner dose 0.8 µM)	146%
Clc1ccc(Nc2nnc(Cc3ccncc3)c3ccccc23)cc1 [vatalanib] + COCC[n+]1c2c(n(Cc3cnccn3)c1C)C(=O)c1ccccc1C2=O [YM155] (first compound 2 µM, partner dose 0.0004 µM)	53.1%
CC1(C)NC(=O)N(c2ccc([N+](=O)[O-])c(C(F)(F)F)c2)C1=O [nilutamide] + O=C(Nc1cccc(Cl)c1)Nc1ncc(CCNc2ncnc3ccsc23)s1 [SNS314] (first compound 1 µM, partner dose 0.0008 µM)	27.5%
Nc1cccc2c1CN(C1CCC(=O)NC1=O)C2=O (stereo unspecified) [lenalidomide] + C[C@]1(c2nc3c(C(N)=O)cccc3[nH]2)CCCN1 [Veliparib] (first compound 1 µM, partner dose 1.4 µM)	117%
OCc1c[nH]c2ccccc12 [Indole-3-carbinol] + COc1ccc(Cl)c(Nc2nc3ccccc3nc2NS(=O)(=O)c2cccc(NC(=O)C(C)(C)N)c2)c1 [XL147] (first compound 0.8 µM, partner dose 0.8 µM)	79.3%
CC(=O)c1c(C)c2cnc(Nc3ccc(N4CCNCC4)cn3)nc2n(C2CCCC2)c1=O [palbociclib] + Clc1ccc(Nc2nnc(Cc3ccncc3)c3ccccc23)cc1 [vatalanib] (first compound 0.04 µM, partner dose 2 µM)	60%
Cn1nnc2c(C(N)=O)ncn2c1=O [temozolomide] + C[C@@H]1CCN(C(=O)CC#N)C[C@@H]1N(C)c1ncnc2[nH]ccc12 [CP690550] (first compound 2 µM, partner dose 1 µM)	35.9%

2 records picked at random from those above, as already listed:
Structure (SMILES)	cleaved PARP positive nuclei fraction
C=CCNC1=C2C[C@@H](C)C[C@H](OC)[C@H](O)[C@@H](C)/C=C(\C)[C@H](OC(N)=O)[C@@H](OC)/C=C\C=C(/C)C(=O)NC(=CC1=O)C2=O [Tanespimycin] + C#Cc1cccc(Nc2ncnc3cc(OCCOC)c(OCCOC)cc23)c1 [erlotinib] (first compound 0.002 µM, partner dose 0.8 µM)	190%
CC(=O)c1c(C)c2cnc(Nc3ccc(N4CCNCC4)cn3)nc2n(C2CCCC2)c1=O [palbociclib] + C[C@]1(c2nc3c(C(N)=O)cccc3[nH]2)CCCN1 [Veliparib] (first compound 0.04 µM, partner dose 1.4 µM)	47%

Following part

Structure (SMILES)	cleaved PARP positive nuclei fraction
Cc1nc(Nc2ncc(C(=O)Nc3c(C)cccc3Cl)s2)cc(N2CCN(CCO)CC2)n1 [dasatanib] + Cn1nnc2c(C(N)=O)ncn2c1=O [temozolomide] (first compound 0.004 µM, partner dose 2 µM)	155%
OCc1c[nH]c2ccccc12 [Indole-3-carbinol] + COCC[n+]1c2c(n(Cc3cnccn3)c1C)C(=O)c1ccccc1C2=O [YM155] (first compound 0.8 µM, partner dose 0.0004 µM)	127%
Clc1ccc(Nc2nnc(Cc3ccncc3)c3ccccc23)cc1 [vatalanib] + C=CCn1c(=O)c2cnc(Nc3ccc(N4CCN(C)CC4)cc3)nc2n1-c1cccc(C(C)(C)O)n1 [MK1775] (first compound 2 µM, partner dose 0.02 µM)	57.4%
C#Cc1cccc(Nc2ncnc3cc(OCCOC)c(OCCOC)cc23)c1 [erlotinib] + COCC[n+]1c2c(n(Cc3cnccn3)c1C)C(=O)c1ccccc1C2=O [YM155] (first compound 0.8 µM, partner dose 0.0004 µM)	136%
Cc1nc(Nc2ncc(C(=O)Nc3c(C)cccc3Cl)s2)cc(N2CCN(CCO)CC2)n1 [dasatanib] + Cn1c(Nc2ccc(C(F)(F)F)cc2)nc2cc(Oc3ccnc(-c4ncc(C(F)(F)F)[nH]4)c3)ccc21 [CHIR265] (first compound 0.004 µM, partner dose 0.08 µM)	512%
CC(C)(C)c1cnc(CSc2cnc(NC(=O)C3CCNCC3)s2)o1 + Cc1cc(N2CCOCC2)cc2[nH]c(-c3c(NC[C@@H](O)c4cccc(Cl)c4)cc[nH]c3=O)nc12 [BMS536924] (first compound 0.01 µM, partner dose 0.2 µM)	103%
OCc1c[nH]c2ccccc12 [Indole-3-carbinol] + Nc1cccc2c1CN(C1CCC(=O)NC1=O)C2=O [lenalidomide] (first compound 0.8 µM, partner dose 1 µM)	41.3%
Cn1c(Nc2ccc(C(F)(F)F)cc2)nc2cc(Oc3ccnc(-c4ncc(C(F)(F)F)[nH]4)c3)ccc21 + Nc1cccc2c1CN(C1CCC(=O)NC1=O)C2=O [lenalidomide] (first compound 0.08 µM, partner dose 1 µM)	66.1%
Clc1ccc(Nc2nnc(Cc3ccncc3)c3ccccc23)cc1 [vatalanib] + Cc1nc(Nc2ncc(C(=O)Nc3c(C)cccc3Cl)s2)cc(N2CCN(CCO)CC2)n1 [dasatanib] (first compound 2 µM, partner dose 0.004 µM)	436%
OCc1c[nH]c2ccccc12 [Indole-3-carbinol] + O=S(=O)(c1ccccc1)N(CC(F)(F)F)c1ccc(C(O)(C(F)(F)F)C(F)(F)F)cc1 [T0901317] (first compound 0.8 µM, partner dose 1.4 µM)	46.9%
C=CCNC1=C2C[C@@H](C)C[C@H](OC)[C@H](O)[C@@H](C)/C=C(\C)[C@H](OC(N)=O)[C@@H](OC)/C=C\C=C(/C)C(=O)NC(=CC1=O)C2=O [Tanespimycin] + Nc1cccc2c1CN(C1CCC(=O)NC1=O)C2=O [lenalidomide] (first compound 0.002 µM, partner dose 1 µM)	154%
C=CCNC1=C2C[C@@H](C)C[C@H](OC)[C@H](O)[C@@H](C)/C=C(\C)[C@H](OC(N)=O)[C@@H](OC)/C=C\C=C(/C)C(=O)NC(=CC1=O)C2=O [Tanespimycin] + OCc1c[nH]c2ccccc12 [Indole-3-carbinol] (first compound 0.002 µM, partner dose 0.8 µM)	218%
C=CCNC1=C2C[C@@H](C)C[C@H](OC)[C@H](O)[C@@H](C)/C=C(\C)[C@H](OC(N)=O)[C@@H](OC)/C=C\C=C(/C)C(=O)NC(=CC1=O)C2=O [Tanespimycin] + CC(=O)c1c(C)c2cnc(Nc3ccc(N4CCNCC4)cn3)nc2n(C2CCCC2)c1=O [palbociclib] (first compound 0.002 µM, partner dose 0.04 µM)	50.3%
C#Cc1cccc(Nc2ncnc3cc(OCCOC)c(OCCOC)cc23)c1 [erlotinib] + Cn1c(Nc2ccc(C(F)(F)F)cc2)nc2cc(Oc3ccnc(-c4ncc(C(F)(F)F)[nH]4)c3)ccc21 [CHIR265] (first compound 0.8 µM, partner dose 0.08 µM)	52.8%
C#Cc1cccc(Nc2ncnc3cc(OCCOC)c(OCCOC)cc23)c1 [erlotinib] + Cn1nnc2c(C(N)=O)ncn2c1=O [temozolomide] (first compound 0.8 µM, partner dose 2 µM)	35%
